Measured values reported in the supplement of paper PMC4635364.
Counter-ions that a name gives are not always drawn. The list shows a part of the results. Repeats in this data set agree poorly, so a single value says little.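 ReNCell VM, a human fetal ventral-midbrain neural progenitor line, was differentiated without mitogens. Blinded raters scored images stained for doublecortin (early neurons) or tyrosine hydroxylase (dopaminergic neurons) against untreated wells (0 = no change). Scores were averaged across repeats and both raters, and compounds averaging 2 or more were selected as hits for retesting.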

Tests used:
ReNCell VM [1] = assay: neuronal differentiation score (DCX+ cell fraction vs untreated, manual image score) (score (-3 to 3)); higher = more neuronal differentiation; conditions: 2 uM, 2 weeks
ReNCell VM [2] = assay: dopaminergic neuron differentiation score (TH+ cell fraction vs untreated, manual image score) (score (0 to 3)); higher = more TH+ dopaminergic neuron differentiation; conditions: 2 uM, 4 weeks, BDNF 10 ng/ml + GDNF 10 ng/ml

`C=CCc1ccc(OC)cc1` was tested, and the neuronal differentiation score (ReNCell VM [1]; library: Spectrum) was inactive: 0 and the “dopaminergic neuron differentiation score” value (ReNCell VM [2]; library: Spectrum) was inactive: 0.
For `C[N+]1([O-])[C@@H]2CC(OC(=O)[C@H](CO)c3ccccc3)C[C@H]1[C@@H]1O[C@@H]12` (stereo partly specified) [Genoscopolamine HBr], the neuronal differentiation score (ReNCell VM [1]; library: Phytochemical) was inactive: 0 and the “dopaminergic neuron differentiation score” value (ReNCell VM [2]; library: Phytochemical) was inactive: 0.
In the case of `CCSCC[C@H](N)C(=O)O`, the neuronal differentiation score (ReNCell VM [1]; library: Spectrum) is reported as inactive: 0 and the “dopaminergic neuron differentiation score” value (ReNCell VM [2]; library: Spectrum) is reported as inactive: 0.
For `CCCN(CCC)CCc1c[nH]c2ccc(C(N)=O)cc12` [N,N-Dipropyl-5-carboxamidotryptamine maleate], the neuronal differentiation score (ReNCell VM [1]; library: LOPAC) was inactive: -1 and the “dopaminergic neuron differentiation score” value (ReNCell VM [2]; library: LOPAC) was inactive: 0.
In the case of `N#CC(C#N)=Cc1ccc(O)c(O)c1` [Tyrphostin 23], the neuronal differentiation score (ReNCell VM [1]; library: LOPAC) is reported as inactive: 0 and the “dopaminergic neuron differentiation score” value (ReNCell VM [2]; library: LOPAC) is reported as inactive: 1.
With `O=C1NC(=O)C(=O)C(=O)N1` the neuronal differentiation score (ReNCell VM [1]; library: Spectrum) was inactive: 0 and the “dopaminergic neuron differentiation score” value (ReNCell VM [2]; library: Spectrum) was inactive: 0.
In the case of `CC(=O)NC1CCSC1=O` (stereo unspecified), the neuronal differentiation score (ReNCell VM [1]; library: Spectrum) is reported as inactive: 0 and the “dopaminergic neuron differentiation score” value (ReNCell VM [2]; library: Spectrum) is reported as inactive: 0.
With `O=C(CCCN1CCC(n2c(=O)[nH]c3ccccc32)CC1)c1ccc(F)cc1` [Benperidol] the neuronal differentiation score (ReNCell VM [1]; library: Prestwick) was inactive: 0 and the “dopaminergic neuron differentiation score” value (ReNCell VM [2]; library: Prestwick) was inactive: 0.
For `O=C1NC(=O)c2c1c1c3ccccc3n3c1c1c2c2ccccc2n1[C@H]1CC[C@@H]3O1`, the neuronal differentiation score (ReNCell VM [1]; library: Tocriscreen) was inactive: 0 and the “dopaminergic neuron differentiation score” value (ReNCell VM [2]; library: Tocriscreen) was inactive: 0.
With `CC(=O)[O-].CC(=O)[O-].[Cd+2]` the neuronal differentiation score (ReNCell VM [1]; library: Spectrum) was inactive: 0 and the “dopaminergic neuron differentiation score” value (ReNCell VM [2]; library: Spectrum) was inactive: 0.
For `CC1(C)S[C@@H]2[C@H](N)C(=O)N2[C@H]1C(=O)O` [6-aminopenicillanic acid], the neuronal differentiation score (ReNCell VM [1]; library: Natural) was inactive: 0 and the “dopaminergic neuron differentiation score” value (ReNCell VM [2]; library: Natural) was inactive: 0.
`O=C(O)[C@@H]1CCN1` [L-azetidine-2-carboxylic acid] was tested, and the neuronal differentiation score (ReNCell VM [1]; library: LOPAC) was inactive: 0 and the “dopaminergic neuron differentiation score” value (ReNCell VM [2]; library: LOPAC) was inactive: 0.
`c1ccc(CCCCN2CCC(c3ccccc3)CC2)cc1` [4-PPBP maleate] was tested, and the neuronal differentiation score (ReNCell VM [1]; library: Tocriscreen) was inactive: 0 and the “dopaminergic neuron differentiation score” value (ReNCell VM [2]; library: Tocriscreen) was inactive: 0.
`CCCN1C[C@H](CSC)C[C@@H]2c3cccc4[nH]cc(c34)C[C@H]21` [Pergolide methanesulfonate] was tested, and the neuronal differentiation score (ReNCell VM [1]; library: LOPAC) was inactive: 0 and the “dopaminergic neuron differentiation score” value (ReNCell VM [2]; library: LOPAC) was inactive: 0.
`COc1ccc(/C=C/c2cc(O)cc(O)c2)cc1` was tested, and the neuronal differentiation score (ReNCell VM [1]; library: Spectrum) was inactive: 0 and the “dopaminergic neuron differentiation score” value (ReNCell VM [2]; library: Spectrum) was inactive: 0.
With `CC(=O)NC1CCSC1=O` (racemic) [N-Acetyl-DL-homocysteine Thiolactone] the neuronal differentiation score (ReNCell VM [1]; library: Prestwick) was inactive: 0 and the “dopaminergic neuron differentiation score” value (ReNCell VM [2]; library: Prestwick) was inactive: 0.
`CCN1C[C@]2(COC)[C@H](O)C[C@H](OC)[C@@]34[C@@H]5C[C@@]6(O)[C@H](OC(=O)c7ccccc7)[C@@H]5[C@@](OC(C)=O)([C@@H]([C@H](OC)[C@H]23)[C@@H]14)[C@@H](O)[C@@H]6OC` was tested, and the neuronal differentiation score (ReNCell VM [1]; library: Spectrum) was inactive: 1 and the “dopaminergic neuron differentiation score” value (ReNCell VM [2]; library: Spectrum) was inactive: 0.
`Cn1cnc(CCN)c1` [1-Methylhistamine dihydrochloride] was tested, and the neuronal differentiation score (ReNCell VM [1]; library: LOPAC) was inactive: 0 and the “dopaminergic neuron differentiation score” value (ReNCell VM [2]; library: LOPAC) was inactive: 0.
`Clc1cccc(SC2CCNCC2)n1` [Anpirtoline hydrochloride] was tested, and the neuronal differentiation score (ReNCell VM [1]; library: Tocriscreen) was inactive: 0 and the “dopaminergic neuron differentiation score” value (ReNCell VM [2]; library: Tocriscreen) was inactive: 1.
`CC(Cc1ccc(OCC(=O)O)cc1)NCC(O)c1cccc(Cl)c1` (stereo unspecified) was tested, and the neuronal differentiation score (ReNCell VM [1]; library: LOPAC) was inactive: 0 and the “dopaminergic neuron differentiation score” value (ReNCell VM [2]; library: LOPAC) was inactive: 0.
In the case of `Fc1ccc(C(OCCN2CCN(C/C=C/c3ccccc3)CC2)c2ccc(F)cc2)cc1`, the neuronal differentiation score (ReNCell VM [1]; library: Tocriscreen) is reported as inactive: 0 and the “dopaminergic neuron differentiation score” value (ReNCell VM [2]; library: Tocriscreen) is reported as inactive: 0.
With `C=CCN1C[C@H](C)N([C@H](c2ccc(C(=O)N(CC)CC)cc2)c2cccc(O)c2)C[C@H]1C` the neuronal differentiation score (ReNCell VM [1]; library: Tocriscreen) was inactive: 0 and the “dopaminergic neuron differentiation score” value (ReNCell VM [2]; library: Tocriscreen) was inactive: 0.
In the case of `C#C[C@]1(O)CC[C@H]2[C@@H]3CCC4=Cc5nc6nc7ccccc7n6cc5C[C@]4(C)[C@H]3CC[C@@]21C`, the neuronal differentiation score (ReNCell VM [1]; library: LOPAC) is reported as inactive: -3 and the “dopaminergic neuron differentiation score” value (ReNCell VM [2]; library: LOPAC) is reported as inactive: 0.
`OC[C@@H](O)[C@H]1O[C@@H]2O[C@H](C(Cl)(Cl)Cl)O[C@@H]2[C@H]1O` was tested, and the neuronal differentiation score (ReNCell VM [1]; library: Spectrum) was inactive: 0 and the “dopaminergic neuron differentiation score” value (ReNCell VM [2]; library: Spectrum) was inactive: 0.
With `CC[C@H]1[C@@H]2C[C@H]3[C@@H]4N(C)c5ccccc5[C@]45C[C@@H]([C@@H]2[C@H]5O)N3[C@@H]1O` [Ajmaline] the neuronal differentiation score (ReNCell VM [1]; library: Phytochemical) was inactive: 0 and the “dopaminergic neuron differentiation score” value (ReNCell VM [2]; library: Phytochemical) was inactive: 0.
For `NC(C(=O)O)c1nn[nH]n1` (racemic) [(RS)-(Tetrazol-5-yl)glycine], the neuronal differentiation score (ReNCell VM [1]; library: Tocriscreen) was inactive: 0 and the “dopaminergic neuron differentiation score” value (ReNCell VM [2]; library: Tocriscreen) was inactive: 0.
In the case of `Cc1nccc2c1[nH]c1cc(O)ccc12`, the neuronal differentiation score (ReNCell VM [1]; library: Spectrum) is reported as inactive: 0 and the “dopaminergic neuron differentiation score” value (ReNCell VM [2]; library: Spectrum) is reported as inactive: 0.
In the case of `Oc1cc(Cl)ccc1Oc1ccc(Cl)cc1Cl`, the neuronal differentiation score (ReNCell VM [1]; library: Spectrum) is reported as inactive: 1 and the “dopaminergic neuron differentiation score” value (ReNCell VM [2]; library: Spectrum) is reported as inactive: 0.
`CCOC(=O)C1C(C=C(C)C)C1(C)C` (stereo unspecified) was tested, and the neuronal differentiation score (ReNCell VM [1]; library: Spectrum) was inactive: 0 and the “dopaminergic neuron differentiation score” value (ReNCell VM [2]; library: Spectrum) was inactive: 0.
With `NC(N)=NOCC[C@H](N)C(=O)O` [L-Canavanine sulfate] the neuronal differentiation score (ReNCell VM [1]; library: LOPAC) was inactive: -1 and the “dopaminergic neuron differentiation score” value (ReNCell VM [2]; library: LOPAC) was inactive: 0.
`CCCN(CCC)CCc1ccc(O)c(O)c1` [Dipropyldopamine hydrobromide] was tested, and the neuronal differentiation score (ReNCell VM [1]; library: LOPAC) was inactive: 0 and the “dopaminergic neuron differentiation score” value (ReNCell VM [2]; library: LOPAC) was inactive: 0.
In the case of `C[N+](C)(C)CC#CCN1CCCC1=O` [Oxotremorine M], the neuronal differentiation score (ReNCell VM [1]; library: Tocriscreen) is reported as inactive: 0 and the “dopaminergic neuron differentiation score” value (ReNCell VM [2]; library: Tocriscreen) is reported as inactive: 0.
For `C[C@@H]1CC[C@]2(NC1)O[C@H]1C[C@H]3[C@@H]4CC=C5C[C@@H](O)CC[C@]5(C)[C@H]4CC[C@]3(C)[C@H]1[C@@H]2C`, the neuronal differentiation score (ReNCell VM [1]; library: Spectrum) was inactive: 0 and the “dopaminergic neuron differentiation score” value (ReNCell VM [2]; library: Spectrum) was inactive: 0.
